Assay [1] deals with Dis2-13Myc (PP1) (Schizosaccharomyces pombe) (UniProt P13681). Kind of assay: co-IP; extracts of S. pombe cells expressing both Flag-tagged Rif1 and Myc-tagged PP1; PP1 immunoprecipitated with anti-c-Myc antibody on Protein G Dynabeads, 1 h; IP buffer 20 mM HEPES-KOH pH 7.6, 50 mM potassium acetate, 5 mM magnesium acetate, 0.1 M sorbitol, 0.1% Triton X-100, 2 mM DTT; co-immunoprecipitated Rif1 detected by blot.

Chains of the proteins cited; added tags and fusions are not shown.
UniProt P13681: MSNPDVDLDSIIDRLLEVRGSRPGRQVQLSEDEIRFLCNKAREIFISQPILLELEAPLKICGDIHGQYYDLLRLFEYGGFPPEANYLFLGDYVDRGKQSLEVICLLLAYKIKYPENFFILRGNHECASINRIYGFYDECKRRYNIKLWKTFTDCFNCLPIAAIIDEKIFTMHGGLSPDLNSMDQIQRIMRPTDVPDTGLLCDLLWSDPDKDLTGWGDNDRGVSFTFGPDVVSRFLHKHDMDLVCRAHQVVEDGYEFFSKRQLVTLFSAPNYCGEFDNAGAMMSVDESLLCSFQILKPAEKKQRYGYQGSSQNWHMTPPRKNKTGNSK

Assay [2] addresses T1, Sds21-13Myc (PP1) (Schizosaccharomyces pombe) (UniProt P23880).
T1 sequence: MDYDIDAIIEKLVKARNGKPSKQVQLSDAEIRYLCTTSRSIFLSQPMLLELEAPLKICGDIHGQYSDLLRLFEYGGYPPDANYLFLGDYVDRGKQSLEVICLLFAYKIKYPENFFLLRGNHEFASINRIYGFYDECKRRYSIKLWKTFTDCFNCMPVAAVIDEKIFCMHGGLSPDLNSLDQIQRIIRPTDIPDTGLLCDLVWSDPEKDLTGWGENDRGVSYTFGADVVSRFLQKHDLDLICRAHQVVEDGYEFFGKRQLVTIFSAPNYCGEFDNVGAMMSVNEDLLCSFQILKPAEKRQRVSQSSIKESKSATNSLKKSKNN
Described as above.

Results are given in words; binding and its absence hold for the method and conditions named. Binding seen in cells or lysates may run through a third protein. Some entries that bind do so weakly or less than the wild type. Where a sequence is shown, tags or fusion partners need not be part of it.

B1: Rif1-Flag3 (full-length Rif1, 1-1,400 aa) (protein, UniProt Q96UP3 1-1400)
chain: MTKEIAVKEASNMLLQEPSTPSSQAVGLSSSPSSSIRKKKVNFSSELENSPGGNRPSFGLPKRGILKTSTPLSSIKQPNFQSFEGNESEKETSLQELQSSFCSGIENLQHVEKSARIETYSKLSSFLKIYTPSLPEDPIFPLLNQLCNFLLSDRCSNNSEGSPDFQLNTQANKLLSILLWHPTISSHIQPETATVFIEQSLNFLEGPKLTKALAAQHLHLLSCQKCPLSIHPLCNRILDVCFNISFPSLVIGQERLAVLTKILSQFPLEFSRRVVDWAPYLLACLVDASRPIREKALLLALDLSKHLYHDKLVARTILANFRSDIKGTAFVLIMTEQFEKLVIEEDDGVYVAHAWAAIISVLGGARISSWEYFNTWLKIIQLCFNSMNPLTKCAAQTSWIRLIHEFSLSETLTQATKRLTLLCQPISMVLGSRNLPTVKNAAMTTLIALIYACLRPGISDAMLSLLWDSVIVNILEKCALKNEVTIFESSNILLALFNTLSNGVWKDDRLVCRESVEAKELPKLNPVWVRANCSRTIEPVKTLLLLAKPDHTVKTTTPARKQHIRGLSYEQSSSVWSTYIKCLASAGQKEIKRSVETGRAICCICSSLHKFLYSKSIRKDELYVERVSRFALMVKSAIEAFGINTFVEASYLVSDNQLVLIDQTKAIDSYDHVPISPLIYLLHSLALLTNGTLFSTVHAAYSSILSSIEEYHLRFGLKLMLLWDCVSPLSDDGTLVLARVLVSHEVSRLTSEALLSELKSRNGNNSVEEGFSEEERSILLKLLSWNVKFCSISDAGSVNNLLQQYFTAIYKFEGCGSVFPFVVDPFTTILDDVLSFEANKVYSFAISLMKVSTFESCTKELPPVTLPENIRQHLDSYNHMVELYNTLLQRLSSSDQVDLQCRYLHELSEFIKKIPKEFIFHTICKLSKGLIPCFLMNAFPQLEKSTTLQKSCTNFCILILQLLLNSTATASNILESLSPLLTSGLKSISKEVVLAAIKFWNQVFGKFESEEYPIELQKTISYLSKTYIILLPFQSLCPGGKQANHQSSEKMSDILKGVDELRSVSKNGPYASSQDKGEKTTEFSGPGKPNNDNYIQIASVQELDDSSKGKAGKMPASKKNKRQKGDVKKIDETKNEATDMEESLTTPSGKVNKEVIVDDTSLRDEAIVPDKAIDVADNSNALLKENISSQSNRKADNNGTPSVNNSFTTANNDECSKENSQIEPEGQTASREGVLSTPRSTRKKRKLGRKSQSSNVNKEVAISEVSATLENVEVIERHGISEQGQNLDESACVLTNESSLSQTEIPEEKTENETTAVNGFENSKKRQFSSLLSGSIDTNNESNKVSSVEFDKSGPQDIIQSMTEATFEIEKNIQDLKSEEVQKLSDLLMRLQRAILSRIA
Take B1: the binding result in assay [1] and in assay [2] was “binds” each time.

The values are drawn from PMC9909590.
